Measured values from patent publication US20070112061A1, “Heat- or singlet oxygen-generating agents and cancer treatment compositions comprising organic peroxide or chemiluminescent compound” (priority 2004, published 2007).

Columns and labels:
[1] = Relative light intensity of chemiluminescence (PMA apparatus); assay type: physicochemical; details: methanol solution mixed with 1N KOH methanol 10:1; Chemical formula A defined as 1
[2] = Formation of imidazole (indicates singlet oxygen generation efficiency); assay type: physicochemical; details: for Solution Yield of imidazole: reaction started with 1N KOH/MeOH

Compound	Relative amount of chemiluminescence [1]	Solid reaction imidazole yield [2]	Solution Yield of imidazole [2]
OOC1(c2ccccc2)N=C(c2cccc(O)c2)N=C1c1ccccc1 (stereo not drawn) [Chemical formula D]	0.232	–	–
O=[N+]([O-])c1ccc(C2=NC(OO)(c3ccccc3)C(c3ccccc3)=N2)cc1 (stereo not drawn) [Chemical formula J]	0.60	50%	49%
CC(C)(C)[Si](C)(C)OOC1(c2ccccc2)N=C(c2ccccc2)N=C1c1ccccc1 (stereo not drawn) [Chemical formula I, 4-t-Butyldimethylsilylperoxy-2,4,5-triphenyl-4H-isoimidazole]	0.58	–	–
Cc1cc(C)c(C2=NC(OO)(c3ccccc3)C(c3ccccc3)=N2)c(C)c1 (stereo not drawn) [Chemical formula L, 4-Hydroperoxy-2-(2′,4′,6′-trimethylphenyl)-4,5-diphenyl-4H-isoimidazole]	2.2	˜0%	˜0%
CN(C)c1ccc(C2=NC(OO)(c3ccc(F)cc3)C(c3ccc(F)cc3)=N2)cc1 (stereo not drawn) [Chemical formula B, 4,5-Bis(4-fluorophenyl)-4-hydroperoxy-2-(4-dimethylaminophenyl)-4H-isoimidazole]	160	˜0%	˜0%
O=Cc1ccc(C2=NC(OO)(c3ccccc3)C(c3ccccc3)=N2)cc1 (stereo not drawn) [Chemical formula K, 2-(4-Formylphenyl)-4-hydroperoxy-4,5-diphenyl-4H-isoimidazole]	˜0	55%	58%
OOC1(c2ccccc2)N=C(c2ccccc2)N=C1c1ccccc1 (stereo not drawn) [Chemical formula A, 4-Hydroperoxy-2,4,5-triphenyl-4H-isoimidazole]	1	45%	13%
Nc1ccc(C2=NC(OO)(c3ccccc3)C(c3ccccc3)=N2)cc1 (stereo not drawn) [Chemical formula H, 2-(4-Aminophenyl)-4-hydroperoxy-4,5-diphenyl-4H-isoimidazole]	1.6	˜0%	3%
OOC1(c2ccccc2)N=C(c2ccc(O)cc2)N=C1c1ccccc1 (stereo not drawn) [Chemical formula C, 4-Hydroperoxy-2-(4-hydroxyphenyl)-4,5-diphenyl-4H-imidazole]	1.02	–	–
